Drawing on paper PMC7519287, this text covers binding for 1 substance.

Sequences of proteins named here, by UniProt entry; tags and fusion partners are left off. A change or cut given only in a name is not applied to a line headed by its entry. Residues count along the entry.
UniProt P49951: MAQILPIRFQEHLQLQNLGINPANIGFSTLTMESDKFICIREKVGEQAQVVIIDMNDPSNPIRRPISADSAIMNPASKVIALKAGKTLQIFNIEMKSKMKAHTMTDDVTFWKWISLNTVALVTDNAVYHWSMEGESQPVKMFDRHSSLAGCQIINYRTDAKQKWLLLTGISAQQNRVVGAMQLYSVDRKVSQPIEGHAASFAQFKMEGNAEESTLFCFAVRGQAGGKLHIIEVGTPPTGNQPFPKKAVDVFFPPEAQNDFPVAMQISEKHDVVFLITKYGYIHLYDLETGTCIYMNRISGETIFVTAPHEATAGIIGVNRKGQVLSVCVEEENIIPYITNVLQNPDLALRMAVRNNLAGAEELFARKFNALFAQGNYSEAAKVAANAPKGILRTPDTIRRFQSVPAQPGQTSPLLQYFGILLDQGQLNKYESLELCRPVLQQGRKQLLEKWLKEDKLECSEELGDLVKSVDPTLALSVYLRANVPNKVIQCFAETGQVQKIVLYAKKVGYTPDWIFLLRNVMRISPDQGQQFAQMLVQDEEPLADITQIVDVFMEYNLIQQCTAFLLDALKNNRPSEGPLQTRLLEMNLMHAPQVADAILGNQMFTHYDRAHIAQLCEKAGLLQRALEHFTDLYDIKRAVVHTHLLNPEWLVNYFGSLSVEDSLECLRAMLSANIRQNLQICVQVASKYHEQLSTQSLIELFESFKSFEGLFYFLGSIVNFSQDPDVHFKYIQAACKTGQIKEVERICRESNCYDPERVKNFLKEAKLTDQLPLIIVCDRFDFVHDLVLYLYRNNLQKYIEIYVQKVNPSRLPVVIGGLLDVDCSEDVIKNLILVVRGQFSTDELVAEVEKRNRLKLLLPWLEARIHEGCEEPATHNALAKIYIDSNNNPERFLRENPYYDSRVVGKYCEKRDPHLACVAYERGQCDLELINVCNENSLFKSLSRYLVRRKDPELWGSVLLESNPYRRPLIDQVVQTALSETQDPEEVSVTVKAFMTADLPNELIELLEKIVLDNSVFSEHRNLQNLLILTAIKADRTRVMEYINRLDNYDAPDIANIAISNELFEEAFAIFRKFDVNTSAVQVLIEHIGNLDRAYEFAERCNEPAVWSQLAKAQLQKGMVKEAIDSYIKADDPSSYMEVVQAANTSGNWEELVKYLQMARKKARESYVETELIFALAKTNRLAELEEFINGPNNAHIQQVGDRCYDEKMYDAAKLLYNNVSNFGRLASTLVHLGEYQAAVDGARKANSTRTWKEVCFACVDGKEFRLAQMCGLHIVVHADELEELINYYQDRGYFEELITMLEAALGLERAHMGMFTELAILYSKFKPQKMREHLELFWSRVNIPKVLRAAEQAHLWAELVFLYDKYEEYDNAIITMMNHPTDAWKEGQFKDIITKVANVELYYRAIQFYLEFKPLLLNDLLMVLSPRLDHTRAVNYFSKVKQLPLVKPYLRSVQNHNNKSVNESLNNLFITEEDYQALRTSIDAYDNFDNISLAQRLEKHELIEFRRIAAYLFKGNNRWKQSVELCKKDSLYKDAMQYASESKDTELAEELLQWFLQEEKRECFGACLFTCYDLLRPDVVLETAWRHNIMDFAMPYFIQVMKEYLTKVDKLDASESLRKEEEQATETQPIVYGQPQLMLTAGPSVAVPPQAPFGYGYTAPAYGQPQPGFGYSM
CHC Hub fragment (residues 1074 to 1675): residues 1074-1675 of P49951

No constants are given. Whether binding was seen depends on the method and setting. Some entries that bind do so weakly or less than the wild type.

For the experiment, the target named is CHC Hub fragment (residues 1074 to 1675) (UniProt P49951). Put plainly: in vitro coassembly of fragments into cages with electron microscopy; Hub, with or without CLCs, combined with TDD under conditions promoting their coassembly (ref. 47); cage size from EM images; both purified.

With “CHC terminal-distal leg segment (TDD, residues 1 to 1074) (from UniProt P49951 1-1074) (domain or fragment)”, the binding result is on record as “binds”.
